Assay [1] addresses human gastric inhibitory polypeptide (glucose-dependent insulinotropic polypeptide) (human (Homo sapiens)). Nature of the assay: direct binding ELISA, human GIP on plate, serial dilutions of CHO supernate, anti-human IgG-HRP. A general note: An ELISA detects its analyte on a solid surface through an enzyme-linked reagent.
In assay [2] the target is gastric inhibitory polypeptide (GIP), species not stated. In words: surface plasmon resonance (values not given).
Assay [3] has as its target human gastric inhibitory polypeptide (glucose-dependent insulinotropic polypeptide) (human (Homo sapiens)). In words: direct binding ELISA, human GIP on plate, anti-human IgG-HRP.
The target in assay [4] is synthetic mouse GIP(1-42) (mouse (Mus musculus)). Nature of the assay: hybridoma screen as described above (ELISA on mouse GIP and competition with mouse GIP in suspension).

Data on ten molecules can be found in patent WO2018102654A1.

These are yes or no findings as the source states them, for the method shown. Binding can be weak; no strength is given.

B1: LC3/HC1 humanized monoclonal antibody (antibody, V domains shown)
VH: QVQLVQSGAEVKKPGATVKISCKVSGFNIRDYYLHWVQQAPGKGLEWMGWIDPENGDTEYAPKFQGRVTITADTSTDTAYMELSSLRSEDTAVYYCNVYGIYFMDYWGQGTMVTVSS
VL: DIQMTQSPGTLSLSPGERATLSCRASSSISSNSLHWYQQKPGQAPRLLIYRTSNRATGIPARFSGSGSGTDYTLTISSLEPEDFAVYYCQQGSSFPRMLTFGGGTKVEIKR
Take B1: the binding entry in assay [1] is “binds”.

B2: LC3/HC2 humanized monoclonal antibody (antibody, V domains shown)
VH: QVQLVQSGAEVKKPGATVKISCKASGFNIRDYYLHWVQQAPGKGLEWMGWIDPENGDTEYAPKFQGRVTITADTSTNTAYMELSSLRSEDTAVYYCNVYGIYFMDYWGQGTMVTVSS
VL: DIQMTQSPGTLSLSPGERATLSCRASSSISSNSLHWYQQKPGQAPRLLIYRTSNRATGIPARFSGSGSGTDYTLTISSLEPEDFAVYYCQQGSSFPRMLTFGGGTKVEIKR
B2: in assay [1], the binding entry was “binds”.

B3: 10g10 monoclonal antibody (original mouse mAb from hybridoma 10g10) (antibody, V domains shown)
VH: QVQLQESGAELVRSGASVKLSCTASGFNIRDYYLHWIKQRPEQGLEWIGWIDPENGDTEYAPKFQDKATVTADTSSNTAYLQLNSLTSEDTAVYYCNVYGIYFMDYWGQGTTVTVSS
VL: DIQLTQSPSTMAASPGEKITITCSASSSISSNSLHWYQQKPGFSPKLLIYRTSNLASGVPGRFSGSGSGTSYSLTIGTMETEDVATYYCQQGSSFPRMLTFGTGTKLEIKR
For the molecule B3, the binding entry in assay [2], in assay [3] and in assay [4] was “binds” each time.

B4: LC2/HC3 humanized monoclonal antibody (antibody, V domains shown)
VH: QVQLQESGAEVKKPGASVKVSCKASGFNIRDYYLHWVRQAPGQGLEWMGWIDPENGDTEYAPKFQGRVTTTADTSISTAYMELSRLRSDDTAVYYCNVYGIYFMDYWGQGTLVTVSS
VL: DIQLTQSPSSVSASVGDRVTITCRASSSISSNSLHWYQQKPGKAPKLLIYRTSNLQSGVPSRFSGSGSGTDYTLTISSLQPEDFATYYCQQGSSFPRMLTFGQGTKLEIKR
As to B4, the binding result in assay [1] is given as “binds”.

B5: LC1/HC2 humanized monoclonal antibody (antibody, V domains shown)
VH: QVQLVQSGAEVKKPGATVKISCKASGFNIRDYYLHWVQQAPGKGLEWMGWIDPENGDTEYAPKFQGRVTITADTSTNTAYMELSSLRSEDTAVYYCNVYGIYFMDYWGQGTMVTVSS
VL: DIQMTQSPSSVSASVGDRVTITCRASSSISSNSLHWYQQKPGKAPKLLIYRTSSLQSGVPSRFSGSGSGTDYTLTISSLQPEDFATYYCQQGSSFPRMLTFGQGTKLEIKR
Turning to B5, the binding entry in assay [1] is recorded as “binds”.

B6: LC1/HC1 humanized monoclonal antibody (antibody, V domains shown)
VH: QVQLVQSGAEVKKPGATVKISCKVSGFNIRDYYLHWVQQAPGKGLEWMGWIDPENGDTEYAPKFQGRVTITADTSTDTAYMELSSLRSEDTAVYYCNVYGIYFMDYWGQGTMVTVSS
VL: DIQMTQSPSSVSASVGDRVTITCRASSSISSNSLHWYQQKPGKAPKLLIYRTSSLQSGVPSRFSGSGSGTDYTLTISSLQPEDFATYYCQQGSSFPRMLTFGQGTKLEIKR
B6: in assay [1], the binding entry was “binds”.

B7: LC2/HC1 humanized monoclonal antibody (antibody, V domains shown)
VH: QVQLVQSGAEVKKPGATVKISCKVSGFNIRDYYLHWVQQAPGKGLEWMGWIDPENGDTEYAPKFQGRVTITADTSTDTAYMELSSLRSEDTAVYYCNVYGIYFMDYWGQGTMVTVSS
VL: DIQLTQSPSSVSASVGDRVTITCRASSSISSNSLHWYQQKPGKAPKLLIYRTSNLQSGVPSRFSGSGSGTDYTLTISSLQPEDFATYYCQQGSSFPRMLTFGQGTKLEIKR
With B7, in assay [1], the binding entry is given as “binds”.

B8: LC1/HC3 humanized monoclonal antibody (antibody, V domains shown)
VH: QVQLQESGAEVKKPGASVKVSCKASGFNIRDYYLHWVRQAPGQGLEWMGWIDPENGDTEYAPKFQGRVTTTADTSISTAYMELSRLRSDDTAVYYCNVYGIYFMDYWGQGTLVTVSS
VL: DIQMTQSPSSVSASVGDRVTITCRASSSISSNSLHWYQQKPGKAPKLLIYRTSSLQSGVPSRFSGSGSGTDYTLTISSLQPEDFATYYCQQGSSFPRMLTFGQGTKLEIKR
For the molecule B8, the binding result in assay [1] is recorded as “binds”.

B9: LC3/HC3 humanized monoclonal antibody (antibody, V domains shown)
VH: QVQLQESGAEVKKPGASVKVSCKASGFNIRDYYLHWVRQAPGQGLEWMGWIDPENGDTEYAPKFQGRVTTTADTSISTAYMELSRLRSDDTAVYYCNVYGIYFMDYWGQGTLVTVSS
VL: DIQMTQSPGTLSLSPGERATLSCRASSSISSNSLHWYQQKPGQAPRLLIYRTSNRATGIPARFSGSGSGTDYTLTISSLEPEDFAVYYCQQGSSFPRMLTFGGGTKVEIKR
For the molecule B9, the binding entry in assay [1] is “binds”.

B10: LC2/HC2 humanized antibody (antibody, V domains shown)
VH: QVQLVQSGAEVKKPGATVKISCKASGFNIRDYYLHWVQQAPGKGLEWMGWIDPENGDTEYAPKFQGRVTITADTSTNTAYMELSSLRSEDTAVYYCNVYGIYFMDYWGQGTMVTVSS
VL: DIQLTQSPSSVSASVGDRVTITCRASSSISSNSLHWYQQKPGKAPKLLIYRTSNLQSGVPSRFSGSGSGTDYTLTISSLQPEDFATYYCQQGSSFPRMLTFGQGTKLEIKR
On to B10, for which the binding entry in assay [2] and in assay [1] was “binds” throughout.
